Measurements reported in PubChem BioAssay AID1053209 (Peter MacCallum Cancer Centre, 2014)
Shown is one part, drawn at random, of about 1,580 reagents tested. 207 of them (13%) count as active. 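Rows are single siRNAs; four siRNAs per gene were tested, a gene counting as confirmed only when at least two agree.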 Unmarked entries are inactive. The numbers tell different reagents against one gene apart. Further read-outs or replicates are left out here. Reagent sequences are not shown.

Test: 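Follow-up of single siRNAs that strengthen doxorubicin killing in osteosarcoma cells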 (follow-up of hits)
System: mouse primary osteosarcoma cells
Knock-down reagent: single siRNA against mouse genes, 25 nM (text also states 40 nM)
Timing: about 120 h (48 h before drug, then 72 h with drug)
Challenge: doxorubicin 100 nM (about IC30-40), added 48 h after transfection, for 72 h
Read-out: 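ATP-based luminescent viability, with or without doxorubicin, relative to non-targeting control NT1, mean of two replicates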
Direction: viability with doxorubicin, vs NT1: higher = more viable cells under doxorubicin; viability without drug, vs NT1: higher = more viable cells without drug
Hit rule: 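Active when doxorubicin viability is at most 0.7 of NT1 and drug-free viability lies between 0.7 and 1.1, class LC dox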

Smndc1 #1 | combined effect class: normal viability with and without drug; viability with doxorubicin, vs NT1: 1.02; viability without drug, vs NT1: 0.9
Smndc1 #2 | combined effect class: high viability only with doxorubicin; viability with doxorubicin, vs NT1: 1.19; viability without drug, vs NT1: 1.01
Smndc1 #3 | combined effect class: normal viability with and without drug; viability with doxorubicin, vs NT1: 0.94; viability without drug, vs NT1: 0.88
Smndc1 #4 | combined effect class: normal viability with and without drug; viability with doxorubicin, vs NT1: 1.09; viability without drug, vs NT1: 0.92
Spc25 #1 | combined effect class: low viability only with doxorubicin; normal without drug (active); viability with doxorubicin, vs NT1: 0.68; viability without drug, vs NT1: 0.94
Spc25 #2 | combined effect class: low viability only with doxorubicin; normal without drug (active); viability with doxorubicin, vs NT1: 0.6; viability without drug, vs NT1: 0.8
Spc25 #3 | combined effect class: low viability with and without drug; viability with doxorubicin, vs NT1: 0.56; viability without drug, vs NT1: 0.62
Spc25 #4 | combined effect class: normal viability with and without drug; viability with doxorubicin, vs NT1: 0.86; viability without drug, vs NT1: 0.92
Sel1l3 #1 | combined effect class: normal viability with and without drug; viability with doxorubicin, vs NT1: 0.72; viability without drug, vs NT1: 0.84
Sel1l3 #2 | combined effect class: normal viability with and without drug; viability with doxorubicin, vs NT1: 0.92; viability without drug, vs NT1: 1
Sel1l3 #3 | combined effect class: high viability only without drug; viability with doxorubicin, vs NT1: 1; viability without drug, vs NT1: 1.1
Sel1l3 #4 | combined effect class: normal viability with and without drug; viability with doxorubicin, vs NT1: 1.02; viability without drug, vs NT1: 0.98
Dnajc8 #1 | combined effect class: normal viability with and without drug; viability with doxorubicin, vs NT1: 0.86; viability without drug, vs NT1: 0.76
Dnajc8 #2 | combined effect class: high viability only with doxorubicin; viability with doxorubicin, vs NT1: 1.17; viability without drug, vs NT1: 0.96
Dnajc8 #3 | combined effect class: low viability only with doxorubicin; normal without drug (active); viability with doxorubicin, vs NT1: 0.51; viability without drug, vs NT1: 0.74
Dnajc8 #4 | combined effect class: high viability only with doxorubicin; viability with doxorubicin, vs NT1: 1.16; viability without drug, vs NT1: 0.92
Rps4x #1 | combined effect class: low viability with and without drug; viability with doxorubicin, vs NT1: 0.45; viability without drug, vs NT1: 0.6
Rps4x #2 | combined effect class: low viability only with doxorubicin; normal without drug (active); viability with doxorubicin, vs NT1: 0.36; viability without drug, vs NT1: 0.71
Rps4x #3 | combined effect class: low viability with and without drug; viability with doxorubicin, vs NT1: 0.32; viability without drug, vs NT1: 0.46
Rps4x #4 | combined effect class: low viability only with doxorubicin; normal without drug (active); viability with doxorubicin, vs NT1: 0.69; viability without drug, vs NT1: 0.72
Dtl #1 | combined effect class: normal viability with and without drug; viability with doxorubicin, vs NT1: 0.74; viability without drug, vs NT1: 0.82
Dtl #2 | combined effect class: low viability with and without drug; viability with doxorubicin, vs NT1: 0.7; viability without drug, vs NT1: 0.67
Dtl #3 | combined effect class: normal viability with and without drug; viability with doxorubicin, vs NT1: 0.74; viability without drug, vs NT1: 0.8
Dtl #4 | combined effect class: high viability only without drug; viability with doxorubicin, vs NT1: 0.95; viability without drug, vs NT1: 1.12

3 of these entries in another layout:
gene knocked down,reagent,combined effect class,"viability with doxorubicin, vs NT1","viability without drug, vs NT1"
Dtl,1,normal viability with and without drug,0.74,0.82
Dtl,2,low viability with and without drug,0.7,0.67
Dtl,3,normal viability with and without drug,0.74,0.8
